The subject of this experiment is HEK293A TEAD-LUC reporter. The experiment can be described thus: TEAD-luciferase reporter activity (YAP activation), robust Z score vs plate; higher = stronger YAP/TEAD activation. Conditions: 24 h. (In general: Reporter assays use an easily measured gene product as a stand-in for the process of interest.)

These results are taken from the supplement of paper PMC10735217.

Where a name gives a salt, the structure may show the parent alone. Some of the results follow. This data set is noisy: repeats of one test often differ as much as different tests do.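 Human kidney-derived cells stably carry a construct in which eight TEAD-binding elements drive luciferase, measured by luminescence in a drug-repurposing library screen. A hit is any compound whose signal exceeds the plate mean by more than five robust Z scores.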

On to `NCCCP(=O)(O)CC1CCCCC1`, for which the TEAD-luciferase reporter activity is, setting by setting: (compound concentration: 200 nM) inactive: -0.778; (compound concentration: 10 uM) inactive: -0.264.
`NC(=O)OC[C@H](O)c1ccccc1Cl` [Carisbamate]: the TEAD-luciferase reporter activity was inactive: 0.564 (compound concentration: 200 nM), inactive: -0.767 (compound concentration: 2 uM) and inactive: 0.393 (compound concentration: 10 uM).
On to `CC(N)Cc1ccc(C(F)(F)F)cc1` (stereo not drawn), for which the TEAD-luciferase reporter activity reads like this: (compound concentration: 200 nM) inactive: -1.1; (compound concentration: 2 uM) inactive: 1.1; (compound concentration: 10 uM) active: 5.03.
Consider `Cc1c(Cl)cccc1S(=O)(=O)Nc1nc(CC(=O)N2CCN(C)CC2)cs1`, for which the TEAD-luciferase reporter activity (compound concentration: 200 nM) was inactive: 1.15 and the TEAD-luciferase reporter activity (compound concentration: 10 uM) is inactive: 0.197.
Consider `Clc1ccc(C23CNCC2C3)cc1Cl` (stereo not drawn), for which the TEAD-luciferase reporter activity reads like this: (compound concentration: 200 nM) inactive: -1.43; (compound concentration: 2 uM) inactive: -1.64; (compound concentration: 10 uM) inactive: -0.42.
In the same order, the values of `CCCCNC(=O)OCC(C)(CCC)COC(N)=O` (stereo not drawn) are inactive: -0.304, inactive: -1.05 and inactive: 1.31.
For `COc1ccccc1N1CCN(CCC(Oc2ccc(C(=O)c3cn(CCCC(=O)O)c4ccccc34)cc2)c2ccc(C)cc2)CC1` (stereo not drawn) the same measures were inactive: -1.46, inactive: -0.97 and inactive: -0.326.
In the same order, the values of `N#Cc1ccccc1-c1cc(-c2ccccn2)cn(-c2ccccc2)c1=O` [perampanel] are inactive: -0.477, inactive: -0.91 and active: 8.08.
Turning to `CCOC(=O)CC(SP(=S)(OC)OC)C(=O)OCC` (stereo not drawn) [Malathion], the TEAD-luciferase reporter activity was inactive: -0.446 (compound concentration: 200 nM), inactive: -0.674 (compound concentration: 2 uM) and inactive: 1.65 (compound concentration: 10 uM).
In the same order, the values of `Cn1c(/C=C/CO)c(CO)c2c1C(=O)C=C(N1CC1)C2=O` are inactive: 0.803, inactive: -0.907 and inactive: 0.596.
For `OC(COC1CN2CCC1CC2)(c1ccccc1)C1CCCC1` (stereo not drawn) [Penethequinine] the same measures were inactive: -1.11, inactive: -0.29 and inactive: -1.23.
With `CC1(C)CCC(C)(C)c2cc(C(=O)Nc3cc(F)c(C(=O)O)c(F)c3)c(O)cc21`, the TEAD-luciferase reporter activity is, setting by setting: (compound concentration: 200 nM) inactive: -0.839; (compound concentration: 10 uM) inactive: 1.47.
In the case of `COc1ccc(C[C@H]2c3cc(OC)c(OC)cc3CC[N@+]2(C)CCCOC(=O)/C=C\C(=O)OCCC[N@@+]2(C)CCc3cc(OC)c(OC)cc3[C@@H]2Cc2ccc(OC)c(OC)c2)cc1OC`, the TEAD-luciferase reporter activity runs as follows: (compound concentration: 200 nM) inactive: 0.846; (compound concentration: 2 uM) inactive: 0.241; (compound concentration: 10 uM) inactive: 1.4.
`COc1cccc(C2(O)CCCC[C@@H]2C[N+](C)(C)[O-])c1` (stereo partly drawn) [Tramadol N-oxide]: the TEAD-luciferase reporter activity by setting is: (compound concentration: 200 nM) inactive: -0.939; (compound concentration: 2 uM) inactive: 0.637; (compound concentration: 10 uM) inactive: -0.648.
For `CC1(C)S[C@@H]2[C@H](NC(=O)CCC[C@@H](N)C(=O)O)C(=O)N2[C@H]1C(=O)O` the same measures were inactive: -2.08, inactive: -0.762 and inactive: 0.604.
In the same order, the values of `CN(C)S(=O)(=O)c1ccc2c(c1)N(C1CN3CCC1CC3)c1ccccc1S2` (stereo not drawn) [quisultazine] are inactive: 2.89, inactive: -0.84 and inactive: -0.92.
Turning to `O=C(C[N+]12CCC(CC1)C(OC(=O)C1(c3ccccc3)CCCCCC1)C2)Nc1ccccn1` (stereo not drawn), the TEAD-luciferase reporter activity reads like this: (compound concentration: 200 nM) inactive: 2.96; (compound concentration: 2 uM) inactive: -0.302; (compound concentration: 10 uM) inactive: -0.862.
For the molecule `C1CCc2nnnn2CC1` [pentylenetetrazole], the TEAD-luciferase reporter activity (compound concentration: 2 uM) is inactive: 0.776.
In the case of `C1CCc2nnnn2CC1`, the TEAD-luciferase reporter activity (compound concentration: 200 nM) was inactive: -0.857 and the TEAD-luciferase reporter activity (compound concentration: 10 uM) is inactive: 4.14.
For `NCCc1cn(S(=O)(=O)c2c(Cl)nc3sccn23)c2ccccc12`, the TEAD-luciferase reporter activity is inactive: -1.19 (compound concentration: 200 nM), inactive: -0.224 (compound concentration: 2 uM) and inactive: -0.336 (compound concentration: 10 uM).
For the molecule `C[C@]12CCC(NOCCN)=C[C@@H]1C(=O)C[C@@H]1[C@@H]2CC[C@]2(C)C(=O)CC[C@@H]12` [istaroxime], the TEAD-luciferase reporter activity reads like this: (compound concentration: 200 nM) inactive: -1.41; (compound concentration: 2 uM) inactive: 2.5.
`C[C@H](N)[C@@H](O)c1ccccc1` [Cathine hydrochloride]: the TEAD-luciferase reporter activity is inactive: 1.28 (compound concentration: 200 nM) and inactive: -0.708 (compound concentration: 10 uM).
As to `COc1cc(N(C)C(=O)C(=O)c2c(C)n(Cc3ccc(Cl)cc3)c3ccc(Cl)cc23)ccn1`, the TEAD-luciferase reporter activity runs as follows: (compound concentration: 200 nM) inactive: -2.61; (compound concentration: 2 uM) inactive: -0.915; (compound concentration: 10 uM) inactive: 0.252.
For `CC(C)N[C@H]1CCn2c(O)nc3cccc(c32)[C@@H]1O` the same measures were inactive: 0.352, inactive: 0.778 and inactive: 0.777.
On to `CCCCC/C=C\C/C=C\C/C=C\C/C=C\CCCC(=O)NCCCC(=O)O`, for which the TEAD-luciferase reporter activity was inactive: -1.16 (compound concentration: 2 uM) and inactive: -1.87 (compound concentration: 10 uM).
Take `COCC1CN=C(c2ccccc2Cl)c2cc(Br)ccc2N1C` (stereo not drawn): the TEAD-luciferase reporter activity was inactive: 0.264 (compound concentration: 200 nM), inactive: 0.186 (compound concentration: 2 uM) and inactive: 0.616 (compound concentration: 10 uM).
As for `Cc1cn([C@H]2C[C@H](N=[N+]=[N-])[C@@H](COP(=O)([O-])O)O2)c(=O)[nH]c1=O` [Phosphonovir], the TEAD-luciferase reporter activity is, setting by setting: (compound concentration: 200 nM) inactive: 0.501; (compound concentration: 2 uM) inactive: 0.815; (compound concentration: 10 uM) inactive: 4.71.
In the same order, the values of `O=C(c1cn(Cc2ccccc2)c2ccccc12)N1CCC(O)(c2ccc(Cl)cc2)CC1` are inactive: -0.239, inactive: 0.339 and inactive: 0.846.
In the same order, the values of `[O]=[Hg]` [Mercuric Oxide] are inactive: 1.98, inactive: -0.0662 and inactive: -0.0909.
With `NC(=O)CS(=O)C(c1ccccc1)c1ccccc1` (stereo not drawn), the TEAD-luciferase reporter activity by setting is: (compound concentration: 200 nM) inactive: 1.28; (compound concentration: 10 uM) inactive: -0.312.
On to `NC(=O)CS(=O)C(c1ccccc1)c1ccccc1` (stereo not drawn) [modafinil d-isomer, short-acting], for which, for the setting “compound concentration: 2 uM”, the TEAD-luciferase reporter activity is inactive: 1.33.
As for `O=C1CN=C(c2ccccn2)c2cc(Br)ccc2N1` [Bromazepam], the TEAD-luciferase reporter activity reads like this: (compound concentration: 200 nM) active: 6.42; (compound concentration: 10 uM) inactive: -0.317.
With `CC(C)(O)c1cnn2c(-c3ccc(F)c(-c4c(F)cccc4C#N)c3)cnc2n1`, the TEAD-luciferase reporter activity was inactive: -1.41 (compound concentration: 200 nM), inactive: -0.984 (compound concentration: 2 uM) and inactive: -0.8 (compound concentration: 10 uM).
For `CC[N+](C)(C)CCC(C(N)=O)(c1ccccc1)c1ccccc1` the same measures were inactive: 1.23, inactive: -0.186 and inactive: -0.29.
For `C[C@]12CC[C@H](O)C[C@H]1CC[C@@H]1[C@@H]2CC[C@]2(C)[C@@H](c3ccc(=O)oc3)C[C@H]3O[C@]132` [Bufogenin] the same measures were inactive: 1.66, inactive: 3.82 and active: 15.2.
For `NC(=O)[C@@H](CC1CC1)[C@@H](CCC(F)(F)F)C(=O)N[C@H]1N=C(c2ccccc2)c2cccc(F)c2NC1=O` the same measures were inactive: -1.2, inactive: 0.06 and inactive: -0.205.
Turning to `COc1ccc(NC(=O)N2CCc3c(sc4c3C(c3ccccc3Cl)=NCc3nnc(C)n3-4)C2)cc1` [Setipafant], the TEAD-luciferase reporter activity reads like this: (compound concentration: 200 nM) inactive: -1.14; (compound concentration: 2 uM) inactive: 0.074; (compound concentration: 10 uM) inactive: 0.479.
